Values of other authors as cited in patent US20040265847A1, “Method for treating Alzheimer's disease” (priority 1991, published 2004).
At least one compound was matched to its structure with a doubt left.

Conditions: cited from earlier work

Q: With `[Zn]` [zinc] as the compound, how does the “sustained extracellular concentration known to be neurotoxic” value read?
A: greater than 200 μM
